Assay [1] deals with T1, LZTR1-mini-TurboID-HA (LZTR1 fused to biotin ligase tagged with HA) (UniProt Q8N653).
T1 sequence: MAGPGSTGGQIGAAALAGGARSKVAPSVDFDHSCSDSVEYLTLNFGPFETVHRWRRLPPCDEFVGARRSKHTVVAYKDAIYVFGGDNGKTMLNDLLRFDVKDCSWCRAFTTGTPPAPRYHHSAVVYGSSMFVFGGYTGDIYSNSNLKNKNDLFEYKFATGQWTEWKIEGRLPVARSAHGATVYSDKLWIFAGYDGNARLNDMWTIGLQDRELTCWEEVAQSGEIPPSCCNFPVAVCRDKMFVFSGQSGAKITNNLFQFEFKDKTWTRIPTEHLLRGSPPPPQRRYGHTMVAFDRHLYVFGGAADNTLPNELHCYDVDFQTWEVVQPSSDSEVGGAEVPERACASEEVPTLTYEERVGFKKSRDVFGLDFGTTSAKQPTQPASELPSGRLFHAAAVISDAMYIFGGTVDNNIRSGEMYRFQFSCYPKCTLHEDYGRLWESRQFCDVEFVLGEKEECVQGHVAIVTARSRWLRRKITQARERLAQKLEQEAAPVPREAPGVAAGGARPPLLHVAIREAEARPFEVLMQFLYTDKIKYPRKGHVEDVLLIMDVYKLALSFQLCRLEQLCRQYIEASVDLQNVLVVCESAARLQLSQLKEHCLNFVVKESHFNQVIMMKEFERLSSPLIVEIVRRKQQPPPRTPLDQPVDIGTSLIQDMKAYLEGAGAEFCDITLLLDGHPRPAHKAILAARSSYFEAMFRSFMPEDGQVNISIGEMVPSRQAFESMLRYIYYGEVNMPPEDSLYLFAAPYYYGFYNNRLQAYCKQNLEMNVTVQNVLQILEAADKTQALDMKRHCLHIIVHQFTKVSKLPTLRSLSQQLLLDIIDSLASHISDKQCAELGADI
Description: proximity labelling; LZTR1-miniTurbo-HA or GFP-TurboID (control) induced with doxycycline in YUHIMO, YUHEF and YUSIK melanoma cells; biotin 50 uM; streptavidin magnetic beads; in-gel trypsin digestion, LC-MS/MS with label-free quantitation; enriched over control at p < 0.05; three biological replicates.

Sequences of proteins named here, by UniProt entry; tags and fusion partners are left off.
UniProt Q13620: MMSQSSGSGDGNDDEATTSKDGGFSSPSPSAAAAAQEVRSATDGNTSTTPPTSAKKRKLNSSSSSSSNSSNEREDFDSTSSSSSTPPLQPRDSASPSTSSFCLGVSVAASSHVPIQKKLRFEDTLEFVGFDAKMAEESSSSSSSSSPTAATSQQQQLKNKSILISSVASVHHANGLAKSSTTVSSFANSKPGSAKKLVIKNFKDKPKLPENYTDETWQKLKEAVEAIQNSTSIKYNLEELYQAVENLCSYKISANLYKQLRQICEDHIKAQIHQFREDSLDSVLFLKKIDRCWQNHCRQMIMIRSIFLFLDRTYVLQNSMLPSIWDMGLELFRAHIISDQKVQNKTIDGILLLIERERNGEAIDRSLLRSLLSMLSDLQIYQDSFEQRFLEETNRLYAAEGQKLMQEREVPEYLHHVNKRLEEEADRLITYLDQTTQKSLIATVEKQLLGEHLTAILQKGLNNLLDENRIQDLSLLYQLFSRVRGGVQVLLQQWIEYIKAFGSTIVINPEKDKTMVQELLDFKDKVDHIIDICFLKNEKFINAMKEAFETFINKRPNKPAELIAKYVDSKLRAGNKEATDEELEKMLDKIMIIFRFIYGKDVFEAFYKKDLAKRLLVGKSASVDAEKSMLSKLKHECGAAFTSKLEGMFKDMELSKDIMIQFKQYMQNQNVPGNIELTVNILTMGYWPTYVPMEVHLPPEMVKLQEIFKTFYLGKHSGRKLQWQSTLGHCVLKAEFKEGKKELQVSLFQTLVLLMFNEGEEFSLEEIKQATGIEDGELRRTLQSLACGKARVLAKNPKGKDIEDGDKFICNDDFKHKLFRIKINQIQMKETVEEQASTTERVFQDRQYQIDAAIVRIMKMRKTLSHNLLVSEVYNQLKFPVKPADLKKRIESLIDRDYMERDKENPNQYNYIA
UniProt Q9NR09: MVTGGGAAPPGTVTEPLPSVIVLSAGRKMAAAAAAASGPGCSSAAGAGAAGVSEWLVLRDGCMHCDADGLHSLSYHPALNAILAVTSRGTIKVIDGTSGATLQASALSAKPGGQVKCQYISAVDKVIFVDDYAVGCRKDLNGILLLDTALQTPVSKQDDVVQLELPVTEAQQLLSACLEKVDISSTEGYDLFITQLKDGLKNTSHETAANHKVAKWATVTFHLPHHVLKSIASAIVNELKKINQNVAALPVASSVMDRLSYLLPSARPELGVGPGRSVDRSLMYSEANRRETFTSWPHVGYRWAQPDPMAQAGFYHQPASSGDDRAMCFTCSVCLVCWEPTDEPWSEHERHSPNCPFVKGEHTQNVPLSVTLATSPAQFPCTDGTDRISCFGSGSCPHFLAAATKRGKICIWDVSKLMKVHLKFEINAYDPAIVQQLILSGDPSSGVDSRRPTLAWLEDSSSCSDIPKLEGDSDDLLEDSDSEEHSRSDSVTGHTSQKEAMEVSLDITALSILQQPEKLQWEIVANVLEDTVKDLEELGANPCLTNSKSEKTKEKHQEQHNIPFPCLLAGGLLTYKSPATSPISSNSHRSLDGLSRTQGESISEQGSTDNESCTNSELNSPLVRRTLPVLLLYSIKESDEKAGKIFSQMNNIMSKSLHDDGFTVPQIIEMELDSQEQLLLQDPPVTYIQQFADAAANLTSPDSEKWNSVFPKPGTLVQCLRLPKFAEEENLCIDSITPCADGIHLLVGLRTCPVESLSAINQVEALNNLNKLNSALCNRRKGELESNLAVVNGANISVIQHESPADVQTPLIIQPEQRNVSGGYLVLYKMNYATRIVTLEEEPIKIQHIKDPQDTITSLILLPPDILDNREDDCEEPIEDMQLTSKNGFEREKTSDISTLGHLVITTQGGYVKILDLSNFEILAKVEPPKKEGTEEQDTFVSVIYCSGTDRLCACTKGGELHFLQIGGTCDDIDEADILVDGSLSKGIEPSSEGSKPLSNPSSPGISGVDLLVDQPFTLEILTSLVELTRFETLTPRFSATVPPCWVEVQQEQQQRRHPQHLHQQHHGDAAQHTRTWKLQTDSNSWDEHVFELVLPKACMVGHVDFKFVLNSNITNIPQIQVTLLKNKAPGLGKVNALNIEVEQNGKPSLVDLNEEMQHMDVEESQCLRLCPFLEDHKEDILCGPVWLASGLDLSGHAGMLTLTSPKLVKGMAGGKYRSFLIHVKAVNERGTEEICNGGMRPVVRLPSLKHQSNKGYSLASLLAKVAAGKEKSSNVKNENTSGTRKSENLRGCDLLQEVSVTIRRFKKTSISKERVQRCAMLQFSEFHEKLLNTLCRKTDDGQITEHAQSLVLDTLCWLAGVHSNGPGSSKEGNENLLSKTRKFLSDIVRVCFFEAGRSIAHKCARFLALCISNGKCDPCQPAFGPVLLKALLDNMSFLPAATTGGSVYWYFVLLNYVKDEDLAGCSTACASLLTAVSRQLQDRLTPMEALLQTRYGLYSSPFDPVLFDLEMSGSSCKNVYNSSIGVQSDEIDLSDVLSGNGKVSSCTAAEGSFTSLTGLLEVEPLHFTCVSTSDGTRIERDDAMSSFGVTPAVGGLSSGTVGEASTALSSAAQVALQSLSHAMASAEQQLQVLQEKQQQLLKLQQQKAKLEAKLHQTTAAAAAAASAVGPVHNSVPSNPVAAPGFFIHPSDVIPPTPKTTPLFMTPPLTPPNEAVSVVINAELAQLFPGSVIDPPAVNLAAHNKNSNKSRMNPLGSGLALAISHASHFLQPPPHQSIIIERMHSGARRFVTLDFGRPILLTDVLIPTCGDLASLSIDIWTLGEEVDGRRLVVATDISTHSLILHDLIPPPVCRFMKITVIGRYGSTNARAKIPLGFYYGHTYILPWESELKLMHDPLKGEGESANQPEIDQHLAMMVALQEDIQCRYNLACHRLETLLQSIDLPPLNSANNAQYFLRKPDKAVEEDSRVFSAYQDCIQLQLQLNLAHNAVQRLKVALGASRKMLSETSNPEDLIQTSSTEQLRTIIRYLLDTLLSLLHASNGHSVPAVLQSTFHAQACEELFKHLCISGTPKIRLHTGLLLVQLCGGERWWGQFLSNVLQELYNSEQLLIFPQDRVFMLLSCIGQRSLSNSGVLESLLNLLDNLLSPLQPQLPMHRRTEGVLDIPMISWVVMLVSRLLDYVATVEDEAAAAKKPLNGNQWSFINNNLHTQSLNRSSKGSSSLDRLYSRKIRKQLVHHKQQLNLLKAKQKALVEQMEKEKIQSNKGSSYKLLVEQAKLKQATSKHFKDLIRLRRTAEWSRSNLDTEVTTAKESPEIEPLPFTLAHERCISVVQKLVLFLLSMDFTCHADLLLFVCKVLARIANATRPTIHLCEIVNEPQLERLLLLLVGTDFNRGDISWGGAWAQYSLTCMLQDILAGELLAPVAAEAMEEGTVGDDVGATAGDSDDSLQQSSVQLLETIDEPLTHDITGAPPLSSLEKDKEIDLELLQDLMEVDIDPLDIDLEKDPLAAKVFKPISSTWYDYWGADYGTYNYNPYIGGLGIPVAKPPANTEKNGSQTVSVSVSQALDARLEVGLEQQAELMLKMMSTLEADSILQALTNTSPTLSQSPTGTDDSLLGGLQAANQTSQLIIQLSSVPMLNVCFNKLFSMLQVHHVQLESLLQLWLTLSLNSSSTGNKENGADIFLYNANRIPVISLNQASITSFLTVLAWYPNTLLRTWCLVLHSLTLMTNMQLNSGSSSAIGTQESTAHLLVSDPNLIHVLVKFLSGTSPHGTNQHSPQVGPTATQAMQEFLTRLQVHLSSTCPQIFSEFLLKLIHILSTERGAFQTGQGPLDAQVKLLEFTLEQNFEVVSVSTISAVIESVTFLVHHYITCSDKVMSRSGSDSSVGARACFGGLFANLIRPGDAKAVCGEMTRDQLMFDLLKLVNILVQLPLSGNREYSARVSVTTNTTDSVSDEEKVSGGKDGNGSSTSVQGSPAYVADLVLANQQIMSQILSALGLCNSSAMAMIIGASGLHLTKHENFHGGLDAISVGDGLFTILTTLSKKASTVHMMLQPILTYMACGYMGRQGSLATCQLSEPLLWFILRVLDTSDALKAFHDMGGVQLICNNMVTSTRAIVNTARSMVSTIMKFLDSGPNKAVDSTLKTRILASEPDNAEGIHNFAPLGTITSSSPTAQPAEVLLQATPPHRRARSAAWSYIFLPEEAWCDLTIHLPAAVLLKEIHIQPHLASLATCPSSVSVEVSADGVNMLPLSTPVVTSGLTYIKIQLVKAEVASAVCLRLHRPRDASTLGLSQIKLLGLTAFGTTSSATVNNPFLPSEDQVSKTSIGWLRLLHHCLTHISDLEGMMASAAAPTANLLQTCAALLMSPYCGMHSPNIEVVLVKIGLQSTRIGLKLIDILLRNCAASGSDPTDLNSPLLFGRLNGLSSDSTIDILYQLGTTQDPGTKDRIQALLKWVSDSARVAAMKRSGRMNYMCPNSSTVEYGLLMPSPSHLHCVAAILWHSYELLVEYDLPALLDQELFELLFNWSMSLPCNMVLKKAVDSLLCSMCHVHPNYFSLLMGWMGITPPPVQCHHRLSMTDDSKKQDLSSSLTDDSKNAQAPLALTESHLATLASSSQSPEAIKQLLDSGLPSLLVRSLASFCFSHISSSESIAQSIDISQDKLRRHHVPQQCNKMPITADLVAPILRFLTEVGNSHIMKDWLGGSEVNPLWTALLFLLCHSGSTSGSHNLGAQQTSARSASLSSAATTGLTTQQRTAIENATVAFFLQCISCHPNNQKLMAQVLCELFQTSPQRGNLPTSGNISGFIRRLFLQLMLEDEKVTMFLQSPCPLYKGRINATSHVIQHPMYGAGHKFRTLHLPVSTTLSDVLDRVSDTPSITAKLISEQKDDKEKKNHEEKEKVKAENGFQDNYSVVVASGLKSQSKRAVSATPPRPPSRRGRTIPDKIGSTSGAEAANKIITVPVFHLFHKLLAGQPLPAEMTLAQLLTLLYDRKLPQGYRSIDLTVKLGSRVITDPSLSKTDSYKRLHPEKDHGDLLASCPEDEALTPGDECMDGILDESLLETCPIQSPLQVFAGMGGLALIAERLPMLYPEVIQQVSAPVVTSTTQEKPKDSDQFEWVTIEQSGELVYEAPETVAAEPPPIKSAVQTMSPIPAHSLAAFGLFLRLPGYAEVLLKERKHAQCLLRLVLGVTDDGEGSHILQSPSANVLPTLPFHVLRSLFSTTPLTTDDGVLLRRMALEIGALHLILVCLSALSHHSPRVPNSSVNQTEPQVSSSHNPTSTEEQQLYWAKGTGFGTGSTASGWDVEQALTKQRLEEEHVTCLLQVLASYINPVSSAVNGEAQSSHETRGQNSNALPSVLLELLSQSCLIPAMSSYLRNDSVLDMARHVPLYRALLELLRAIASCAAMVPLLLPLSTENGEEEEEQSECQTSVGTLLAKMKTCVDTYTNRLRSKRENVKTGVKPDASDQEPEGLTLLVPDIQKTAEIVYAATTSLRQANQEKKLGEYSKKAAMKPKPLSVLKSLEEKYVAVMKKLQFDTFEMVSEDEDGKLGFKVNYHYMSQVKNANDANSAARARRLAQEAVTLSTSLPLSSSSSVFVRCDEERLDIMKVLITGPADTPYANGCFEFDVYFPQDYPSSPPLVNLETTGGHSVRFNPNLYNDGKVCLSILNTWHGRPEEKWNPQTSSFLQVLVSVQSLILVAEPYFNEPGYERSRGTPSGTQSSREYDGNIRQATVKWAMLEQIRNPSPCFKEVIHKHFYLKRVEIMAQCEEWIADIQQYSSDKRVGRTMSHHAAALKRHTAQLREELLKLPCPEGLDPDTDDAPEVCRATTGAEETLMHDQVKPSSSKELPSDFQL
UniProt Q13177: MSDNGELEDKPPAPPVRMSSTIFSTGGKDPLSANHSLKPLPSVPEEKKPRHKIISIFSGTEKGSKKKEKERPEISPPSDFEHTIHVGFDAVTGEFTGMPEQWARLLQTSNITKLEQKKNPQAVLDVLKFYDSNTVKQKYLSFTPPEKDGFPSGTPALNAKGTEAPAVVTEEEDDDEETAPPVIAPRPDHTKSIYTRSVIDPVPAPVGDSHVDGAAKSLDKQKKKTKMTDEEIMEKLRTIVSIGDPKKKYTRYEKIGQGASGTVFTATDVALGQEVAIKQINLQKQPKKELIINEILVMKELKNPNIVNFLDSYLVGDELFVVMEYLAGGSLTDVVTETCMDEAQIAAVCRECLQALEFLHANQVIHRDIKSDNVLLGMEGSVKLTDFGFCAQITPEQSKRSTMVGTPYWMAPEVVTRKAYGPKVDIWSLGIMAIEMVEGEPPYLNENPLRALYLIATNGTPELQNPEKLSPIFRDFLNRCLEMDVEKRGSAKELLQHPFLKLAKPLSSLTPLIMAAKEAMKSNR

For assay [2], the target named is T1, LZTR1-mini-TurboID-HA (LZTR1 fused to biotin ligase tagged with HA). Description: proximity labelling; LZTR1-TurboID or GFP-TurboID in melanoma cells with or without doxycycline; biotin for 24 h or for 2 and 18 h; streptavidin bead-bound proteins and whole cell lysates probed by Western blot. For orientation: In western blotting, separated proteins are transferred to a membrane and probed.

For assay [3], the target named is T2, LZTR1-HA (UniProt Q8N653).
T2 sequence: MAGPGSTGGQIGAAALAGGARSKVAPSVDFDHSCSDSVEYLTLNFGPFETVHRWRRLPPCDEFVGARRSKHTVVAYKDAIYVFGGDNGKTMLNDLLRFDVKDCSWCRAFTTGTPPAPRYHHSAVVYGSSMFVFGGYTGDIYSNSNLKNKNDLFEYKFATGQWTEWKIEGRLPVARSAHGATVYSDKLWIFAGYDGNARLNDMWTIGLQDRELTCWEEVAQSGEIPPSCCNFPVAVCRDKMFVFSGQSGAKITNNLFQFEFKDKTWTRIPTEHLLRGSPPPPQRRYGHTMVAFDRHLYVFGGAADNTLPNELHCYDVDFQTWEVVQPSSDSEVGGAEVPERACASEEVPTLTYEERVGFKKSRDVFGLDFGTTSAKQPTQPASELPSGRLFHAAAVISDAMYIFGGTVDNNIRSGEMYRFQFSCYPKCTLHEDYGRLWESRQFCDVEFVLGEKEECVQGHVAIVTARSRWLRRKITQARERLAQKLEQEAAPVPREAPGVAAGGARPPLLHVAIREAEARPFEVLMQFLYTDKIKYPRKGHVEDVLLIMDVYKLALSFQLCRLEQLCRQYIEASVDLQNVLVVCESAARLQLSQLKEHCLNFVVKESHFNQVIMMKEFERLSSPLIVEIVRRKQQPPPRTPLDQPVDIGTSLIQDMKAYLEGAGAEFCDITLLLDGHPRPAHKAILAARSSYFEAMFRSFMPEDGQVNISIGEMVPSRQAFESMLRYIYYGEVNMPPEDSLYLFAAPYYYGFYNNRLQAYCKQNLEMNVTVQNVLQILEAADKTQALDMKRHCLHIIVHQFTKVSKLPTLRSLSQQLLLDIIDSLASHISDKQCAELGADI
Description: affinity purification with mass spectrometry; LZTR1-HA precipitated from YUHIMO lysates (doxycycline 200 ng/ml, 3 days) with anti-HA magnetic beads overnight in the cold; washed with TBS, 0.1% Tween-20; eluted with HA peptide; LC-MS; uninduced cells as control.

Assay [4] has as its target T1, LZTR1-mini-TurboID-HA (LZTR1 fused to biotin ligase tagged with HA). Description: proximity labelling; LZTR1-miniTurbo-HA or GFP-TurboID (control) induced with doxycycline in YUHIMO, YUHEF and YUSIK melanoma cells; biotin 50 uM; streptavidin magnetic beads; in-gel trypsin digestion, LC-MS/MS with label-free quantitation; enriched over control at p < 0.05; three biological replicates. The source holds these as a separate data set.

These are yes or no findings as the source states them, for the method shown. In cells and extracts the contact can be indirect. A yes stands for co-enrichment or nearness to the bait. Other partners may have been found. Where a sequence is shown, tags or fusion partners need not be part of it.

As for “NEDD4 (E3 ubiquitin ligase) (from UniProt P46934 1-1319)”, the binding result in assay [1] and in assay [2] was “binds” throughout. With BAG3 (from UniProt O95817 1-575), the binding result in assay [3] was “binds”.

Take “ARF-GTPase-activating protein GIT1 (from UniProt Q9Y2X7 1-761)”: the binding entry in assay [1] and in assay [2] was “binds” throughout. In the case of BAG6 (from UniProt P46379 1-1132), the binding entry in assay [3] is reported as “binds”. As for “phosphatidylinositol-4-phosphate 3-kinase catalytic subunit type 2 alpha (PIK3C2A) (from UniProt O00443 1-1686)”, the binding result in assay [2] is recorded as “binds”.

As for “ATG3 (E2 ubiquitin-like conjugating enzyme) (from UniProt Q9NT62 1-314)”, the binding entry in assay [1] and in assay [2] was “binds” each time. “Ubiquitin-Specific Protease USP24 (from UniProt Q9UPU5 1-2620)”: the binding entry in assay [1] is reported as “binds”.

For the molecule “sequestosome 1 (SQSTM1/p62) (from UniProt Q13501 1-440)”, the binding result in assay [3], in assay [1] and in assay [2] was “binds” throughout. Take CUL4B (from UniProt Q13620 1-913): the binding entry in assay [3] is listed as “binds”. Take “BIRC6 (ubiquitin conjugating enzyme) (from UniProt Q9NR09 1-4857)”: the binding entry in assay [1] and in assay [2] was “binds” in each case. Consider “p21 (RAC1) activated kinase 2 PAK2 (from UniProt Q13177 1-524)”, for which the binding entry in assay [1] and in assay [2] was “binds” in each case. In the case of USP9X (from UniProt Q93008 1-2554), in assay [2], the binding entry is “binds”. As to “myosin IIa (MYH9) (from UniProt P35579 1-1960)”, the binding entry in assay [3] is “binds”. Consider “PSMD2 (proteasome 26S subunit ubiquitin receptor, non-ATPase 2) (from UniProt Q13200 1-908)”, for which the binding entry in assay [3] is on record as “binds”.

B1: Ubiquitin-Specific Protease USP15 (protein, UniProt Q9Y4E8 1-981)
chain: MAEGGAADLDTQRSDIATLLKTSLRKGDTWYLVDSRWFKQWKKYVGFDSWDKYQMGDQNVYPGPIDNSGLLKDGDAQSLKEHLIDELDYILLPTEGWNKLVSWYTLMEGQEPIARKVVEQGMFVKHCKVEVYLTELKLCENGNMNNVVTRRFSKADTIDTIEKEIRKIFSIPDEKETRLWNKYMSNTFEPLNKPDSTIQDAGLYQGQVLVIEQKNEDGTWPRGPSTPKSPGASNFSTLPKISPSSLSNNYNNMNNRNVKNSNYCLPSYTAYKNYDYSEPGRNNEQPGLCGLSNLGNTCFMNSAIQCLSNTPPLTEYFLNDKYQEELNFDNPLGMRGEIAKSYAELIKQMWSGKFSYVTPRAFKTQVGRFAPQFSGYQQQDCQELLAFLLDGLHEDLNRIRKKPYIQLKDADGRPDKVVAEEAWENHLKRNDSIIVDIFHGLFKSTLVCPECAKISVTFDPFCYLTLPLPMKKERTLEVYLVRMDPLTKPMQYKVVVPKIGNILDLCTALSALSGIPADKMIVTDIYNHRFHRIFAMDENLSSIMERDDIYVFEININRTEDTEHVIIPVCLREKFRHSSYTHHTGSSLFGQPFLMAVPRNNTEDKLYNLLLLRMCRYVKISTETEETEGSLHCCKDQNINGNGPNGIHEEGSPSEMETDEPDDESSQDQELPSENENSQSEDSVGGDNDSENGLCTEDTCKGQLTGHKKRLFTFQFNNLGNTDINYIKDDTRHIRFDDRQLRLDERSFLALDWDPDLKKRYFDENAAEDFEKHESVEYKPPKKPFVKLKDCIELFTTKEKLGAEDPWYCPNCKEHQQATKKLDLWSLPPVLVVHLKRFSYSRYMRDKLDTLVDFPINDLDMSEFLINPNAGPCRYNLIAVSNHYGGMGGGHYTAFAKNKDDGKWYYFDDSSVSTASEDQIVSKAAYVLFYQRQDTFSGTGFFPLDRETKGASAATGIPLESDEDSNDNDNDIENENCMHTN
With B1, the binding entry in assay [4] is “binds”.

B2: VCPIP1 (Valosin Containing Protein Interacting Protein 1) (protein, UniProt Q96JH7 1-1222)
chain: MSQPPPPPPPLPPPPPPPEAPQTPSSLASAAASGGLLKRRDRRILSGSCPDPKCQARLFFPASGSVSIECTECGQRHEQQQLLGVEEVTDPDVVLHNLLRNALLGVTGAPKKNTELVKVMGLSNYHCKLLSPILARYGMDKQTGRAKLLRDMNQGELFDCALLGDRAFLIEPEHVNTVGYGKDRSGSLLYLHDTLEDIKRANKSQECLIPVHVDGDGHCLVHAVSRALVGRELFWHALRENLKQHFQQHLARYQALFHDFIDAAEWEDIINECDPLFVPPEGVPLGLRNIHIFGLANVLHRPIILLDSLSGMRSSGDYSATFLPGLIPAEKCTGKDGHLNKPICIAWSSSGRNHYIPLVGIKGAALPKLPMNLLPKAWGVPQDLIKKYIKLEEDGGCVIGGDRSLQDKYLLRLVAAMEEVFMDKHGIHPSLVADVHQYFYRRTGVIGVQPEEVTAAAKKAVMDNRLHKCLLCGALSELHVPPEWLAPGGKLYNLAKSTHGQLRTDKNYSFPLNNLVCSYDSVKDVLVPDYGMSNLTACNWCHGTSVRKVRGDGSIVYLDGDRTNSRSTGGKCGCGFKHFWDGKEYDNLPEAFPITLEWGGRVVRETVYWFQYESDSSLNSNVYDVAMKLVTKHFPGEFGSEILVQKVVHTILHQTAKKNPDDYTPVNIDGAHAQRVGDVQGQESESQLPTKIILTGQKTKTLHKEELNMSKTERTIQQNITEQASVMQKRKTEKLKQEQKGQPRTVSPSTIRDGPSSAPATPTKAPYSPTTSKEKKIRITTNDGRQSMVTLKSSTTFFELQESIAREFNIPPYLQCIRYGFPPKELMPPQAGMEKEPVPLQHGDRITIEILKSKAEGGQSAAAHSAHTVKQEDIAVTGKLSSKELQEQAEKEMYSLCLLATLMGEDVWSYAKGLPHMFQQGGVFYSIMKKTMGMADGKHCTFPHLPGKTFVYNASEDRLELCVDAAGHFPIGPDVEDLVKEAVSQVRAEATTRSRESSPSHGLLKLGSGGVVKKKSEQLHNVTAFQGKGHSLGTASGNPHLDPRARETSVVRKHNTGTDFSNSSTKTEPSVFTASSSNSELIRIAPGVVTMRDGRQLDPDLVEAQRKKLQEMVSSIQASMDRHLRDQSTEQSPSDLPQRKTEVVSSSAKSGSLQTGLPESFPLTGGTENLNTETTDGCVADALGAAFATRSKAQRGNSVEELEEMDSQDAEMTNTTEPMDHS
Regarding B2, the binding result in assay [4] is “binds”.

B3: TRIM24 (protein, UniProt O15164 1-1050)
chain: MEVAVEKAVAAAAAASAAASGGPSAAPSGENEAESRQGPDSERGGEAARLNLLDTCAVCHQNIQSRAPKLLPCLHSFCQRCLPAPQRYLMLPAPMLGSAETPPPVPAPGSPVSGSSPFATQVGVIRCPVCSQECAERHIIDNFFVKDTTEVPSSTVEKSNQVCTSCEDNAEANGFCVECVEWLCKTCIRAHQRVKFTKDHTVRQKEEVSPEAVGVTSQRPVFCPFHKKEQLKLYCETCDKLTCRDCQLLEHKEHRYQFIEEAFQNQKVIIDTLITKLMEKTKYIKFTGNQIQNRIIEVNQNQKQVEQDIKVAIFTLMVEINKKGKALLHQLESLAKDHRMKLMQQQQEVAGLSKQLEHVMHFSKWAVSSGSSTALLYSKRLITYRLRHLLRARCDASPVTNNTIQFHCDPSFWAQNIINLGSLVIEDKESQPQMPKQNPVVEQNSQPPSGLSSNQLSKFPTQISLAQLRLQHMQQQVMAQRQQVQRRPAPVGLPNPRMQGPIQQPSISHQQPPPRLINFQNHSPKPNGPVLPPHPQQLRYPPNQNIPRQAIKPNPLQMAFLAQQAIKQWQISSGQGTPSTTNSTSSTPSSPTITSAAGYDGKAFGSPMIDLSSPVGGSYNLPSLPDIDCSSTIMLDNIVRKDTNIDHGQPRPPSNRTVQSPNSSVPSPGLAGPVTMTSVHPPIRSPSASSVGSRGSSGSSSKPAGADSTHKVPVVMLEPIRIKQENSGPPENYDFPVVIVKQESDEESRPQNANYPRSILTSLLLNSSQSSTSEETVLRSDAPDSTGDQPGLHQDNSSNGKSEWLDPSQKSPLHVGETRKEDDPNEDWCAVCQNGGELLCCEKCPKVFHLSCHVPTLTNFPSGEWICTFCRDLSKPEVEYDCDAPSHNSEKKKTEGLVKLTPIDKRKCERLLLFLYCHEMSLAFQDPVPLTVPDYYKIIKNPMDLSTIKKRLQEDYSMYSKPEDFVADFRLIFQNCAEFNEPDSEVANAGIKLENYFEELLKNLYPEKRFPKPEFRNESEDNKFSDDSDDDFVQPRKKRLKSIEERQLLK
For B3, the binding result in assay [4] is “binds”.

Values taken from article PMC12500468.
